Binding data for one substance are collected here from PMC7131911.

Protein sequences, listed by entry. Tags and fused reporters are not part of them.
UniProt Q08857: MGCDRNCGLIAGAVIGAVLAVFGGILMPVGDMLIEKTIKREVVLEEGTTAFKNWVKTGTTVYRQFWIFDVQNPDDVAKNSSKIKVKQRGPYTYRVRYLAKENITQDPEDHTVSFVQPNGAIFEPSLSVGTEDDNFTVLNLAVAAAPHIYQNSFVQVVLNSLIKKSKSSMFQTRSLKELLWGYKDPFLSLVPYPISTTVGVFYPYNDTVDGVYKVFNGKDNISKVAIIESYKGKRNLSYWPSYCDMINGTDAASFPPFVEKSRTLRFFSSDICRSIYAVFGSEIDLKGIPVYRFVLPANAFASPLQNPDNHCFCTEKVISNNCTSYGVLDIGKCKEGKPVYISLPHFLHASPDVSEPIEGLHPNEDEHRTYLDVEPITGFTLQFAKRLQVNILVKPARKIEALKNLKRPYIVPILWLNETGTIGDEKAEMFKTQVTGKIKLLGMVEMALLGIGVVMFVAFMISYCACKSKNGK
UniProt Q9JMA1: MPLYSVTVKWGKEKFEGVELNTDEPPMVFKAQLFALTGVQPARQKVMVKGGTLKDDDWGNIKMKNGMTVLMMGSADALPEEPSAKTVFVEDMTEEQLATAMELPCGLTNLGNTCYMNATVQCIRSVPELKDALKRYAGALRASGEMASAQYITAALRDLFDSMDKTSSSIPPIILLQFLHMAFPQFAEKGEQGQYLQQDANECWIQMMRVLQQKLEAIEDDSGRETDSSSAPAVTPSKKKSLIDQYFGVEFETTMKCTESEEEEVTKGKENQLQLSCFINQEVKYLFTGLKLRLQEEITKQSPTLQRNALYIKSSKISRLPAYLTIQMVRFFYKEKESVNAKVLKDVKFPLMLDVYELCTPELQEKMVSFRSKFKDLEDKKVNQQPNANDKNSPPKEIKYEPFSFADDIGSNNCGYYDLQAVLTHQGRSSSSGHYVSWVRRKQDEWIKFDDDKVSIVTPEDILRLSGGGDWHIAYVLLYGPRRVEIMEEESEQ

The target in this assay is CD36 (mouse (endogenous in RAW264.7)) (UniProt Q08857). Put plainly: affinity purification with mass spectrometry; cellular extracts from RAW264.7 cells immunopurified with anti-CD36 antibody beads, SDS-PAGE, silver staining, bands excised for LC-MS/MS.

These are yes or no findings as the source states them, for the method shown. In cells and extracts the contact can be indirect. A yes stands for co-enrichment or nearness to the bait. Other partners may have been found.

As for “USP14 (from UniProt Q9JMA1 1-493) (enzyme)”, the binding result is “binds”.
